Where a chain is given by its changes, count along the chain named. At least one compound was matched to its structure with a doubt left.
How the values were obtained:
Assay in all cases: Surface plasmon resonance binding to immobilized sugar chain (Biacore T100/T200), kinetics, 1:1 fit
[1] = biological target: T1, Fucose-binding protein 127Q39L/Q65L/C72G (fucose-binding protein 127 from Burkholderia cenocepacia BC2LCN, variant Q39L/Q65L/C72G, SEQ ID NO: 16, tagged), SEQ I (Burkholderia cenocepacia, UniProt B4EH86, C73G/Q40L/Q66L); details: read-out: Dissociation constant (KD); SPR, protein as analyte, biotin-labeled sugar chain immobilized, HBS-EP+
T1 sequence (B4EH86 with tags, fused parts or gaps Q40L/Q66L/C73G): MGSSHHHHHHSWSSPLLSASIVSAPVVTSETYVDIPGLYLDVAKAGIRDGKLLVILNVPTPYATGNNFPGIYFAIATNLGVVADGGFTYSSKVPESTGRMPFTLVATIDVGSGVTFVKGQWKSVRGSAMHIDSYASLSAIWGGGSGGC

[2] = biological target: T2, Fucose-binding protein E81K (Burkholderia cenocepacia recombinant BC2LCN(155)cys, SEQ ID NO: 32, variant E81K of SEQ ID NO: 1 numbering) (Burkholderia cenocepacia, UniProt B4EH86, E82K); details: read-out: Dissociation constant (KD); SPR, protein as analyte, biotin-labeled sugar chain immobilized, HBS-EP+
T2 construct: SPR
T2 sequence (B4EH86 with tags, fused parts or gaps E82K): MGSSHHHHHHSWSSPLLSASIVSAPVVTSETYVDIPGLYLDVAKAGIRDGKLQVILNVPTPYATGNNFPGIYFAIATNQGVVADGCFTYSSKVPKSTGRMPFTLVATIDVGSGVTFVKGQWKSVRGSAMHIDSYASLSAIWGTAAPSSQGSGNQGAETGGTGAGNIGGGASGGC

[3] = biological target: T3, Fucose-binding protein E81C (Burkholderia cenocepacia recombinant BC2LCN(155)cys, SEQ ID NO: 32, variant E81C of SEQ ID NO: 1 numbering) (Burkholderia cenocepacia, UniProt B4EH86, E82C); details: read-out: Dissociation constant (KD); SPR, protein as analyte, biotin-labeled sugar chain immobilized, HBS-EP+
T3 construct: SPR
T3 sequence (B4EH86 with tags, fused parts or gaps E82C): T2 sequence (B4EH86 with tags, fused parts or gaps E82K) with K95C

[4] = biological target: T4, Fucose-binding protein 129E81H (fucose-binding protein 129 from Burkholderia cenocepacia BC2LCN, variant E81H, SEQ ID NO: 9, tagged), SEQ ID NO: 40 (Burkholderia cenocepacia, UniProt B4EH86, E82H); details: read-out: Dissociation constant (KD); SPR, protein as analyte, biotin-labeled sugar chain immobilized, HBS-EP+
T4 sequence (B4EH86 with tags, fused parts or gaps E82H): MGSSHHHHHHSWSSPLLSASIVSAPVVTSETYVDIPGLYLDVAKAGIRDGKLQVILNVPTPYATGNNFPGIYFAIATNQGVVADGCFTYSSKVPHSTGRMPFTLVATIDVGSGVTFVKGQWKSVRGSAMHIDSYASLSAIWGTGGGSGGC

[5] = biological target: T5, Fucose-binding protein E81Q (Burkholderia cenocepacia recombinant BC2LCN(155)cys, SEQ ID NO: 32, variant E81Q of SEQ ID NO: 1 numbering) (Burkholderia cenocepacia, UniProt B4EH86, E82Q); details: read-out: Dissociation constant (KD); SPR, protein as analyte, biotin-labeled sugar chain immobilized, HBS-EP+
T5 construct: SPR
T5 sequence (B4EH86 with tags, fused parts or gaps E82Q): T2 sequence (B4EH86 with tags, fused parts or gaps E82K) with K95Q

[6] = biological target: T6, Fucose-binding protein E81I (Burkholderia cenocepacia recombinant BC2LCN(155)cys, SEQ ID NO: 32, variant E81I of SEQ ID NO: 1 numbering) (Burkholderia cenocepacia, UniProt B4EH86, E82I); details: read-out: Dissociation constant (KD); SPR, protein as analyte, biotin-labeled sugar chain immobilized, HBS-EP+
T6 construct: SPR
T6 sequence (B4EH86 with tags, fused parts or gaps E82I): T2 sequence (B4EH86 with tags, fused parts or gaps E82K) with K95I

[7] = biological target: T7, Fucose-binding protein 129 (Burkholderia cenocepacia BC2LCN residues 1-129, SEQ ID NO: 2, tagged), SEQ ID NO: 33 (Burkholderia cenocepacia, UniProt B4EH86); details: SPR, protein as analyte, biotin-labeled sugar chain immobilized, HBS-EP+; read-out: Dissociation constant (KD)
T7 sequence (B4EH86 with tags, fused parts or gaps): T4 sequence (B4EH86 with tags, fused parts or gaps E82H) with H95E

[8] = biological target: T8, Fucose-binding protein 129E81Q (fucose-binding protein 129 from Burkholderia cenocepacia BC2LCN, variant E81Q, SEQ ID NO: 8, tagged), SEQ ID NO: 39 (Burkholderia cenocepacia, UniProt B4EH86, E82Q); details: read-out: Dissociation constant (KD); SPR, protein as analyte, biotin-labeled sugar chain immobilized, HBS-EP+
T8 sequence (B4EH86 with tags, fused parts or gaps E82Q): T4 sequence (B4EH86 with tags, fused parts or gaps E82H) with H95Q

[9] = biological target: T9, Fucose-binding protein E81S (Burkholderia cenocepacia recombinant BC2LCN(155)cys, SEQ ID NO: 32, variant E81S of SEQ ID NO: 1 numbering) (Burkholderia cenocepacia, UniProt B4EH86, E82S); details: read-out: Dissociation constant (KD); SPR, protein as analyte, biotin-labeled sugar chain immobilized, HBS-EP+
T9 construct: SPR
T9 sequence (B4EH86 with tags, fused parts or gaps E82S): T2 sequence (B4EH86 with tags, fused parts or gaps E82K) with K95S

[10] = biological target: T10, Fucose-binding protein E81M (Burkholderia cenocepacia recombinant BC2LCN(155)cys, SEQ ID NO: 32, variant E81M of SEQ ID NO: 1 numbering) (Burkholderia cenocepacia, UniProt B4EH86, E82M); details: read-out: Dissociation constant (KD); SPR, protein as analyte, biotin-labeled sugar chain immobilized, HBS-EP+
T10 construct: SPR
T10 sequence (B4EH86 with tags, fused parts or gaps E82M): T2 sequence (B4EH86 with tags, fused parts or gaps E82K) with K95M

[11] = biological target: T11, Fucose-binding protein 127C72A (fucose-binding protein 127 from Burkholderia cenocepacia BC2LCN, variant C72A, SEQ ID NO: 12, tagged), SEQ ID NO: 43 (Burkholderia cenocepacia, UniProt B4EH86, C73A); details: read-out: Dissociation constant (KD); SPR, protein as analyte, biotin-labeled sugar chain immobilized, HBS-EP+
T11 sequence (B4EH86 with tags, fused parts or gaps C73A): T1 sequence (B4EH86 with tags, fused parts or gaps Q40L/Q66L/C73G) with L53Q, L79Q, G86A

[12] = biological target: T12, Fucose-binding protein 129E81M (fucose-binding protein 129 from Burkholderia cenocepacia BC2LCN, variant E81M, SEQ ID NO: 10, tagged), SEQ ID NO: 41 (Burkholderia cenocepacia, UniProt B4EH86, E82M); details: read-out: Dissociation constant (KD); SPR, protein as analyte, biotin-labeled sugar chain immobilized, HBS-EP+
T12 sequence (B4EH86 with tags, fused parts or gaps E82M): T4 sequence (B4EH86 with tags, fused parts or gaps E82H) with H95M

[13] = biological target: T13, Fucose-binding protein 127C72G (fucose-binding protein 127 from Burkholderia cenocepacia BC2LCN, variant C72G, SEQ ID NO: 11, tagged), SEQ ID NO: 42 (Burkholderia cenocepacia, UniProt B4EH86, C73G); details: read-out: Dissociation constant (KD); SPR, protein as analyte, biotin-labeled sugar chain immobilized, HBS-EP+
T13 sequence (B4EH86 with tags, fused parts or gaps C73G): T1 sequence (B4EH86 with tags, fused parts or gaps Q40L/Q66L/C73G) with L53Q, L79Q

[14] = biological target: T14, Fucose-binding protein E81H (Burkholderia cenocepacia recombinant BC2LCN(155)cys, SEQ ID NO: 32, variant E81H of SEQ ID NO: 1 numbering) (Burkholderia cenocepacia, UniProt B4EH86, E82H); details: read-out: Dissociation constant (KD); SPR, protein as analyte, biotin-labeled sugar chain immobilized, HBS-EP+
T14 construct: SPR
T14 sequence (B4EH86 with tags, fused parts or gaps E82H): T2 sequence (B4EH86 with tags, fused parts or gaps E82K) with K95H

[15] = biological target: T15, Fucose-binding protein E81V (Burkholderia cenocepacia recombinant BC2LCN(155)cys, SEQ ID NO: 32, variant E81V of SEQ ID NO: 1 numbering) (Burkholderia cenocepacia, UniProt B4EH86, E82V); details: read-out: Dissociation constant (KD); SPR, protein as analyte, biotin-labeled sugar chain immobilized, HBS-EP+
T15 construct: SPR
T15 sequence (B4EH86 with tags, fused parts or gaps E82V): T2 sequence (B4EH86 with tags, fused parts or gaps E82K) with K95V

[16] = biological target: T16, Recombinant BC2LCN(155)cys (Burkholderia cenocepacia BC2L-C lectin N-terminal domain, residues 1-155 of SEQ ID NO: 1, His and Cys tags), SEQ ID NO: 32 (Burkholderia cenocepacia, UniProt B4EH86); details: SPR, protein as analyte, biotin-labeled sugar chain immobilized, HBS-EP+; read-out: Dissociation constant (KD)
T16 construct: SPR
T16 sequence (B4EH86 with tags, fused parts or gaps): T2 sequence (B4EH86 with tags, fused parts or gaps E82K) with K95E

[17] = biological target: T17, Fucose-binding protein 129E81C (fucose-binding protein 129 from Burkholderia cenocepacia BC2LCN, variant E81C, SEQ ID NO: 7, tagged), SEQ ID NO: 38 (Burkholderia cenocepacia, UniProt B4EH86, E82C); details: read-out: Dissociation constant (KD); SPR, protein as analyte, biotin-labeled sugar chain immobilized, HBS-EP+
T17 sequence (B4EH86 with tags, fused parts or gaps E82C): T4 sequence (B4EH86 with tags, fused parts or gaps E82H) with H95C

[18] = biological target: T18, Fucose-binding protein 127Q39L (fucose-binding protein 127 from Burkholderia cenocepacia BC2LCN, variant Q39L, SEQ ID NO: 13, tagged), SEQ ID NO: 44 (Burkholderia cenocepacia, UniProt B4EH86, Q40L); details: read-out: Dissociation constant (KD); SPR, protein as analyte, biotin-labeled sugar chain immobilized, HBS-EP+
T18 sequence (B4EH86 with tags, fused parts or gaps Q40L): T1 sequence (B4EH86 with tags, fused parts or gaps Q40L/Q66L/C73G) with L79Q, G86C

[19] = biological target: T19, Fucose-binding protein 127Q39L/C72G (fucose-binding protein 127 from Burkholderia cenocepacia BC2LCN, variant Q39L/C72G, SEQ ID NO: 15, tagged), SEQ ID NO: 46 (Burkholderia cenocepacia, UniProt B4EH86, C73G/Q40L); details: read-out: Dissociation constant (KD); SPR, protein as analyte, biotin-labeled sugar chain immobilized, HBS-EP+
T19 sequence (B4EH86 with tags, fused parts or gaps Q40L/C73G): T1 sequence (B4EH86 with tags, fused parts or gaps Q40L/Q66L/C73G) with L79Q

**Q.** Which results are given for CC(=O)N[C@H]1C(O)O[C@H](CO)[C@@H](O)[C@@H]1O[C@@H]1O[C@H](CO)[C@H](O)[C@H](O)[C@H]1O[C@@H]1O[C@@H](C)[C@@H](O)[C@@H](O)[C@@H]1O (stereo partly drawn) [H type 1 sugar chain, Fucα1-2Galβ1-3GlcNAc]?
**A.** Kd [1]: 3.9 nM; Kd [2]: 4.2 nM; Kd [3]: 0.024 nM; Kd [4]: 1 nM; Kd [5]: 3 nM; Kd [6]: 5.1 nM; Kd [7]: 2.7 nM; Kd [8]: 3.7 nM; Kd [9]: 5 nM; Kd [10]: 3.1 nM; Kd [11]: 0.7 nM; Kd [12]: 3.1 nM; Kd [13]: 1.2 nM; Kd [14]: 3 nM; Kd [15]: 8.3 nM; Kd [16]: 3.9 nM; Kd [17]: 2.3 nM

**Q.** For CC(=O)N[C@H]1C(O)O[C@H](CO)[C@H](O)[C@@H]1O[C@@H]1O[C@H](CO)[C@H](O)[C@H](O)[C@H]1O[C@@H]1O[C@@H](C)[C@@H](O)[C@@H](O)[C@@H]1O (stereo partly drawn) [H type 3 sugar chain, Fucα1-2Galβ1-3GalNAc], which Kd [1] is on record?
**A.** 4.6 nM

**Q.** And the Kd [2]?
**A.** 5.8 nM

**Q.** What about the Kd [3] of the same molecule?
**A.** 9.7 nM

**Q.** What about the Kd [4] of the same molecule?
**A.** 0.8 nM

**Q.** What about the Kd [5] of the same molecule?
**A.** 4 nM

**Q.** And the Kd [6]?
**A.** 6.1 nM

**Q.** And the Kd [7]?
**A.** 11 nM

**Q.** And the Kd [8]?
**A.** 3.6 nM

**Q.** What about the Kd [9] of the same molecule?
**A.** 6.1 nM

**Q.** And the Kd [18]?
**A.** 1.1 nM

**Q.** What about the Kd [10] of the same molecule?
**A.** 3.9 nM

**Q.** What about the Kd [19] of the same molecule?
**A.** 3.9 nM

**Q.** And the Kd [11]?
**A.** 2 nM

**Q.** And the Kd [12]?
**A.** 3.1 nM

**Q.** And the Kd [13]?
**A.** 1.1 nM

**Q.** And the Kd [14]?
**A.** 7.8 nM

**Q.** And the Kd [15]?
**A.** 4.4 nM

**Q.** What about the Kd [16] of the same molecule?
**A.** 11 nM

**Q.** What about the Kd [17] of the same molecule?
**A.** 3.1 nM
